2 molecules from US20200407449A1 can be followed below.

The target in experiment [1] is T1, human VISTA expressed on CHO-K1 cells (human) (UniProt Q9H7M9).
T1 sequence (looked up): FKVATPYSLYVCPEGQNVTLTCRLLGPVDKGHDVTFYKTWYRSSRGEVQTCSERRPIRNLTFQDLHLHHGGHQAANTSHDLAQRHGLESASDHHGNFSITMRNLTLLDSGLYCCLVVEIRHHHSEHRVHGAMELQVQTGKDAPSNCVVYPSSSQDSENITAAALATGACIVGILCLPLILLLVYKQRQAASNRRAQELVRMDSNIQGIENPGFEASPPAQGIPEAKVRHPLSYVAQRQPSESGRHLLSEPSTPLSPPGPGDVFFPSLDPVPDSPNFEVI
Description: flow cytometry, IgG at 2 ug/ml on CHO-K1 cells over-expressing human VISTA, anti-human IgG-Fc-PE.

Experiment [2] concerns the target T1, human VISTA expressed on CHO-K1 cells (human). Description: flow cytometry, IgG at 2 ug/ml on CHO-K1 cells overexpressing human VISTA. A general note: Flow cytometry measures light scatter and fluorescence of single cells or particles in a stream.
Experiment [3] has the same target. The experiment can be described thus: flow cytometry, scFv phage on CHO-K1 cells overexpressing human VISTA.
For experiment [4] the target is unchanged. The experiment can be described thus: flow cytometry, scFv phage supernatant on CHO-K1 cells expressing human VISTA, anti-M13 then anti-mouse IgG-PE.

These are yes or no findings as the source states them, for the method shown. Some results given as binding are weak or reduced against the parent protein; the word gives no strength.

B1: anti-VISTA antibody 1A12 (IgG form) (antibody, V domains shown)
VH: QMQLVESGGGLVEPGRSLRLSCTTSGFSFHDYTMYWVRQVPGKGLEWVSLISWDGTITFYADPVRGRFTISRDNSKNSLYLQMNSLRAEDTAVYYCAKEDRYDYYSGAFDIWGQGTVVTVSS
VL: QSALTQPRSVSGSPGQSVTISCTGTSSDVGGYDYVSWYQQHPGKAPKLILNDVNKRPSGVPDRFSGSKSGNTASLTISGLQPDDEADYYCSSFAGSNTLRVFGGGTKLTVLG
Take B1: the binding result in experiment [1] and in experiment [2] was “binds” throughout.

B2: 1A12 monoclonal scFv phage (scFv, V domains shown)
VH: QMQLVESGGGLVEPGRSLRLSCTTSGFSFHDYTMYWVRQVPGKGLEWVSLISWDGTITFYADPVRGRFTISRDNSKNSLYLQMNSLRAEDTAVYYCAKEDRYDYYSGAFDIWGQGTVVTVSS
VL: QSALTQPRSVSGSPGQSVTISCTGTSSDVGGYDYVSWYQQHPGKAPKLILNDVNKRPSGVPDRFSGSKSGNTASLTISGLQPDDEADYYCSSFAGSNTLRVFGGGTKLTVLG
B2: the binding entry in experiment [3] and in experiment [4] was “binds” each time.
